From US20190120846A1
Results are given in words; binding and its absence hold for the method and conditions named. Some binding calls cover weakened binding; strength is not graded here.

Columns and labels:
[1] = target: T1, recombinant human glypican-1 produced in murine NS0 cells (human) (UniProt P35052); experiment: sandwich ELISA
T1 sequence (looked up): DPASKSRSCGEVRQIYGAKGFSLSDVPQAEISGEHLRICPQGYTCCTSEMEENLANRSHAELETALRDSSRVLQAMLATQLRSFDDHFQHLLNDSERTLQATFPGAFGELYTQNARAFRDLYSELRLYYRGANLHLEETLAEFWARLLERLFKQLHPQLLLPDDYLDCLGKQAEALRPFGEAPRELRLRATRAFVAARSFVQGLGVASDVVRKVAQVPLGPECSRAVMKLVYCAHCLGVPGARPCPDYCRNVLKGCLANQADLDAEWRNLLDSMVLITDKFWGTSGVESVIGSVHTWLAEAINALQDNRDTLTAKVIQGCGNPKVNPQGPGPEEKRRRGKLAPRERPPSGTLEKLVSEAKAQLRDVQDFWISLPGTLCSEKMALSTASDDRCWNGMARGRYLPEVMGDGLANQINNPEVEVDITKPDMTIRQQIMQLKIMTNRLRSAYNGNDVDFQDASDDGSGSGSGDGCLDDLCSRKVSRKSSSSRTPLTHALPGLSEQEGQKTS

[2] = target: T1, recombinant human glypican-1 produced in murine NS0 cells (human); experiment: sandwich ELISA, AM4 as capture, biotinylated AM4 as detection
[3] = target: T2, human glypican-1 (GPC-1) sequence used for epitope mapping (human) (UniProt P35052); experiment: earlier peptide analyses by the inventors
T2 sequence: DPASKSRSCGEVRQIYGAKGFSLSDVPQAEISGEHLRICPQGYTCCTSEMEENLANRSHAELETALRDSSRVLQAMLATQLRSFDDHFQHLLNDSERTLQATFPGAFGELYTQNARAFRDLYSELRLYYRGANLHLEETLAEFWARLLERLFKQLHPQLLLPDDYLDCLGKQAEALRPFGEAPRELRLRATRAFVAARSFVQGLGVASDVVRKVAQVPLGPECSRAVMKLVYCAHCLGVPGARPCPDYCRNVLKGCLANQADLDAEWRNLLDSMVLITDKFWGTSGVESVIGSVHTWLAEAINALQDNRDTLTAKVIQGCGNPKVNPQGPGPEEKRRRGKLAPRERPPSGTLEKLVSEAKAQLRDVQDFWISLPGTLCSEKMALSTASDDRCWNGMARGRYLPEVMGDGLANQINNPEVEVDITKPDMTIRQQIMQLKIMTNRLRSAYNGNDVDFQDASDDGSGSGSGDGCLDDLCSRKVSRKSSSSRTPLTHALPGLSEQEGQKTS

[4] = target: T2, human glypican-1 (GPC-1) sequence used for epitope mapping (human); experiment: PEPSCAN ELISA on CLIPS peptide arrays, 10 µg/ml antibody
[5] = target: T1, recombinant human glypican-1 produced in murine NS0 cells (human); experiment: sandwich ELISA, capture 2.5 µg/well, biotinylated AM4 clone 1F5 as detection

- binding [1]: binds
- binding [2]: binds
- binding [3]: binds
- binding [4]: binds
- binding [5]: binds
B1: AM4 MIL-38 antibody (monoclonal, hybridoma CBA20140026) (antibody, mouse IgG1, kappa, V domains shown)
VH: QIQLVQSGPELKKPGETVKISCKASGYAFTDYSMNWVKQAPGKGLRWMGWINTETGEPTYTDDFKGRFAFSLETSASTAFLQINNLRNEDTATYFCARHYDYGGFPYWGQGTLVTVSA
VL: DIQMTQSPASLSASVGETVTITCRASGNVHNYLAWYQQKQGKSPQLLVYTAKTLADGVPSRFSGSGSGTQYSLKINSLQPEDFGTYYCQHFWSNPWTFGGGTKLEIKR
